Experiment [1] addresses T1, full-length TSPAN5-GFP, wild-type (human) (UniProt P62079).
T1 sequence: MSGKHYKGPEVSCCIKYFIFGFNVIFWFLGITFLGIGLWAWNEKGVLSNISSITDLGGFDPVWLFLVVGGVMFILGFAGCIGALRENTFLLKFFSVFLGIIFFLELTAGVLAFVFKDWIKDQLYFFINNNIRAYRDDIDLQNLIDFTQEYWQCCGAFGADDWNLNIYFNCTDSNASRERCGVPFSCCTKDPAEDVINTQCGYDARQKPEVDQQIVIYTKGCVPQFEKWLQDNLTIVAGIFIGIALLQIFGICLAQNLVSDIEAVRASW
Kind of experiment: co-IP; HEK293 cells transfected with TSPAN5-GFP and HA-tagged NLG1 constructs, lysed in RIPA buffer; GFP-Trap magnetic beads 1 h at 4 °C; blots.

Chains of the proteins cited; added tags and fusions are not shown. Residues count along the entry.
UniProt Q99K10, residues 46-843: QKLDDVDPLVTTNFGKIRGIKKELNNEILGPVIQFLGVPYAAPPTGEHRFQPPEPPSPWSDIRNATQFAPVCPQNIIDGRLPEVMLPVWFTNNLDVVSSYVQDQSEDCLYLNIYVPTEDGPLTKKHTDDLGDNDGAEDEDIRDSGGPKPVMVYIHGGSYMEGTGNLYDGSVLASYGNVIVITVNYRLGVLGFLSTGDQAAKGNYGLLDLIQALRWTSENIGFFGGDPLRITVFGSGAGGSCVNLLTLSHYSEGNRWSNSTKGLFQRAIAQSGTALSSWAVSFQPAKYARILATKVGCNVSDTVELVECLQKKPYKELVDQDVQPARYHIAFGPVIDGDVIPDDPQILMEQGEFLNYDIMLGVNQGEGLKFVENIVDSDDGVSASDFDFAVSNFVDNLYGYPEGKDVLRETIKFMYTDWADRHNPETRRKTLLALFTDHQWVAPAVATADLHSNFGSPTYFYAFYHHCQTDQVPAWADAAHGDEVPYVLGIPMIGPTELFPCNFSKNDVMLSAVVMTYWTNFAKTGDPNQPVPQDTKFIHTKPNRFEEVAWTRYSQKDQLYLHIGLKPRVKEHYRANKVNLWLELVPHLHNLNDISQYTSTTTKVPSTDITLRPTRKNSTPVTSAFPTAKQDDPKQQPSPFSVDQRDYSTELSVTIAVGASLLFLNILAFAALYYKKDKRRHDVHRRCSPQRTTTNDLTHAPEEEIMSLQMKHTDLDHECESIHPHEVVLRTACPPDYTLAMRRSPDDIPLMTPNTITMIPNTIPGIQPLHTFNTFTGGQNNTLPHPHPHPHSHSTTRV
UniProt Q62765, residues 46-843: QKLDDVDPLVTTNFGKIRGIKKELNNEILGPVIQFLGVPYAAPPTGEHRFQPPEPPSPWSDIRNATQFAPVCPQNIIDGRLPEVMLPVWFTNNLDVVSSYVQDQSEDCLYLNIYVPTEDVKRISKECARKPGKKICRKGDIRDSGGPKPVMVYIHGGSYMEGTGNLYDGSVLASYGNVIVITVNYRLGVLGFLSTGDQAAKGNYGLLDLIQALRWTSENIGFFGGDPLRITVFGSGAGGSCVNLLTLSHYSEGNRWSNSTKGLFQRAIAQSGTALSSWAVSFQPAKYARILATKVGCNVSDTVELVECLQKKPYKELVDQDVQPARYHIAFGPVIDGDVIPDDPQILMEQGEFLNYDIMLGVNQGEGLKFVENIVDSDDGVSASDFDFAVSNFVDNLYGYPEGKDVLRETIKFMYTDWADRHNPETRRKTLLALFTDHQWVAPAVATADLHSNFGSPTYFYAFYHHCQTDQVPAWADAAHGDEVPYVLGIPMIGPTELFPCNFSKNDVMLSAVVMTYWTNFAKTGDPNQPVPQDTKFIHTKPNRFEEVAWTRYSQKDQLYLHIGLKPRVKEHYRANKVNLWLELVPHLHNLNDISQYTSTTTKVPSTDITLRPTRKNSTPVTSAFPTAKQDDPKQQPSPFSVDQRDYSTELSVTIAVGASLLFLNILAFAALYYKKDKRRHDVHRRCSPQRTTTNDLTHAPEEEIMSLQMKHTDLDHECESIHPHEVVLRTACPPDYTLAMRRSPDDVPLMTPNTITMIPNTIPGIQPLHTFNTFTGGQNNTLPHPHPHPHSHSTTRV

Experiment [2] deals with T2, TSPAN5 (rat (endogenous in adult rat hippocampus and cortex)) (UniProt Q68VK5).
T2 sequence: T1 sequence
Description: co-IP; adult rat hippocampus and cortex lysates in RIPA buffer (1% NP40, 1% Triton X-100); α-TSPAN5 antibody overnight at 4 °C, protein A-agarose beads; blots.

A further experiment concerns the target AP-neuroligin-1 (UniProt Q99K10). Kind of experiment: pull-down; HEK293 cells co-transfected with TSPAN5 constructs, AP-NLG1 and BirA-ER, lysed in RIPA buffer; biotinylated AP-NLG1 pulled down with streptavidin-agarose beads 3 h at 4 °C; blots.

Results are given in words; binding and its absence hold for the method and conditions named. In cells and extracts the contact can be indirect. Some binding calls cover weakened binding; strength is not graded here. For part of these data: Sequences can lack the tags named with a protein.

“HA-tagged wild-type NLG1 (from UniProt Q99K10 46-843)”: the binding entry in experiment [1] is reported as “binds”.
Take “neuroligin-1 (from UniProt Q62765 46-843)”: in experiment [2], the binding entry is recorded as “binds”.

B1: full-length TSPAN5-GFP, wild-type (protein, UniProt P62079 1-268)
chain: T1 sequence
Take B1: in the experiment with AP-neuroligin-1, the binding result was “binds”.
